Measurements from the supplement of paper PMC10849652.
The other results are listed elsewhere or left out.

By UniProt entry, the sequences of proteins in these tests, tags left out. Where a name states a change or a piece, a line headed by the entry shows the natural chain unless it says otherwise.
UniProt Q96AG4: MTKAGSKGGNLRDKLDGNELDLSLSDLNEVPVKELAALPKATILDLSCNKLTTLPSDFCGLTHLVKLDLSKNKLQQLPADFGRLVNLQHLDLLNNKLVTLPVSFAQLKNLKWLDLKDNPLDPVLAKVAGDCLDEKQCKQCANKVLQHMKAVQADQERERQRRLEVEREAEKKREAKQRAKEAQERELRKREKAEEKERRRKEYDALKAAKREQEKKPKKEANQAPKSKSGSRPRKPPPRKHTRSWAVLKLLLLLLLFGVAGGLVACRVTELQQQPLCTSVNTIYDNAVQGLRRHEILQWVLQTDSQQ
UniProt O60294: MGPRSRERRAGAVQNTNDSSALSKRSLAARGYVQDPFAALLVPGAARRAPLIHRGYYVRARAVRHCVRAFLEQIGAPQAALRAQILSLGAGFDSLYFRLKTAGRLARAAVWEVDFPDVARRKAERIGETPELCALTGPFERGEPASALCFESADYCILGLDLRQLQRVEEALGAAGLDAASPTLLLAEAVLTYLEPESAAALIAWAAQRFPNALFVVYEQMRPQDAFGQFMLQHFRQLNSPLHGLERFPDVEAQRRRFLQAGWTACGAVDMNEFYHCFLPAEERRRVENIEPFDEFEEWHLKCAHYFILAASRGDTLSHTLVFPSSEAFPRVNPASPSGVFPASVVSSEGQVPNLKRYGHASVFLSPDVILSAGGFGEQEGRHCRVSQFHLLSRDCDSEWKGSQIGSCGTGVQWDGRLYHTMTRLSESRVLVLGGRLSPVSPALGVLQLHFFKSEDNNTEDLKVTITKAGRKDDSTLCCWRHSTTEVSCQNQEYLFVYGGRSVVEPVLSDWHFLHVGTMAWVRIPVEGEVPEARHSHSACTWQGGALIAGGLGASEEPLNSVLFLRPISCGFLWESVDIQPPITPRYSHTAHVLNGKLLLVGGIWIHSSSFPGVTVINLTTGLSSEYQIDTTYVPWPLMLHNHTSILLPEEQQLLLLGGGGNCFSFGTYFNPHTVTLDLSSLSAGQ
UniProt Q9NT99: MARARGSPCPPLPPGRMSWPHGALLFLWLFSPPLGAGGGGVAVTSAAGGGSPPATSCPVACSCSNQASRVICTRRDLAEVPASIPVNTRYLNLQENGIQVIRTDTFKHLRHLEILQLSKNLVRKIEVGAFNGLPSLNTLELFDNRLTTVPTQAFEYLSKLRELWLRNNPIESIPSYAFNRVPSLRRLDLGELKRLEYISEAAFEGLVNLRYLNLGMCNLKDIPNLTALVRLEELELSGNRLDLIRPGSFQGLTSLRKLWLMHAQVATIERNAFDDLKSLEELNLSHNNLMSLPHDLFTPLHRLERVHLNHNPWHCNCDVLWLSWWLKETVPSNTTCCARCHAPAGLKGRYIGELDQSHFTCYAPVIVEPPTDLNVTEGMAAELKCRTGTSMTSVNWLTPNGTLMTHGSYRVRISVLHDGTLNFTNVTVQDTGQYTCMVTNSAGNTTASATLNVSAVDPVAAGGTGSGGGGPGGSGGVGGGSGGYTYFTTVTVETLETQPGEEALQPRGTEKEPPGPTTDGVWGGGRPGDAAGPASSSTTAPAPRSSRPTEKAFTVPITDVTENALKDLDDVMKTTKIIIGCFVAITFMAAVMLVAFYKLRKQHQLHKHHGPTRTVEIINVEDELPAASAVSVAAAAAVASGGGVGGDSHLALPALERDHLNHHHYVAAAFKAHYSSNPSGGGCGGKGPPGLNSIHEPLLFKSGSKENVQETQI
UniProt O14910: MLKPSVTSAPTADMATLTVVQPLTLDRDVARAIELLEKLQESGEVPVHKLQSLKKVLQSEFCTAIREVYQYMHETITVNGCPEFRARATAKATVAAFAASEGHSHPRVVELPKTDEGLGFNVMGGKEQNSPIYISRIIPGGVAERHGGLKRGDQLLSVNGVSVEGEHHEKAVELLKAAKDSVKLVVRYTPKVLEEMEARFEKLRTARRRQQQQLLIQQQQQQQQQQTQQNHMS
UniProt P07942: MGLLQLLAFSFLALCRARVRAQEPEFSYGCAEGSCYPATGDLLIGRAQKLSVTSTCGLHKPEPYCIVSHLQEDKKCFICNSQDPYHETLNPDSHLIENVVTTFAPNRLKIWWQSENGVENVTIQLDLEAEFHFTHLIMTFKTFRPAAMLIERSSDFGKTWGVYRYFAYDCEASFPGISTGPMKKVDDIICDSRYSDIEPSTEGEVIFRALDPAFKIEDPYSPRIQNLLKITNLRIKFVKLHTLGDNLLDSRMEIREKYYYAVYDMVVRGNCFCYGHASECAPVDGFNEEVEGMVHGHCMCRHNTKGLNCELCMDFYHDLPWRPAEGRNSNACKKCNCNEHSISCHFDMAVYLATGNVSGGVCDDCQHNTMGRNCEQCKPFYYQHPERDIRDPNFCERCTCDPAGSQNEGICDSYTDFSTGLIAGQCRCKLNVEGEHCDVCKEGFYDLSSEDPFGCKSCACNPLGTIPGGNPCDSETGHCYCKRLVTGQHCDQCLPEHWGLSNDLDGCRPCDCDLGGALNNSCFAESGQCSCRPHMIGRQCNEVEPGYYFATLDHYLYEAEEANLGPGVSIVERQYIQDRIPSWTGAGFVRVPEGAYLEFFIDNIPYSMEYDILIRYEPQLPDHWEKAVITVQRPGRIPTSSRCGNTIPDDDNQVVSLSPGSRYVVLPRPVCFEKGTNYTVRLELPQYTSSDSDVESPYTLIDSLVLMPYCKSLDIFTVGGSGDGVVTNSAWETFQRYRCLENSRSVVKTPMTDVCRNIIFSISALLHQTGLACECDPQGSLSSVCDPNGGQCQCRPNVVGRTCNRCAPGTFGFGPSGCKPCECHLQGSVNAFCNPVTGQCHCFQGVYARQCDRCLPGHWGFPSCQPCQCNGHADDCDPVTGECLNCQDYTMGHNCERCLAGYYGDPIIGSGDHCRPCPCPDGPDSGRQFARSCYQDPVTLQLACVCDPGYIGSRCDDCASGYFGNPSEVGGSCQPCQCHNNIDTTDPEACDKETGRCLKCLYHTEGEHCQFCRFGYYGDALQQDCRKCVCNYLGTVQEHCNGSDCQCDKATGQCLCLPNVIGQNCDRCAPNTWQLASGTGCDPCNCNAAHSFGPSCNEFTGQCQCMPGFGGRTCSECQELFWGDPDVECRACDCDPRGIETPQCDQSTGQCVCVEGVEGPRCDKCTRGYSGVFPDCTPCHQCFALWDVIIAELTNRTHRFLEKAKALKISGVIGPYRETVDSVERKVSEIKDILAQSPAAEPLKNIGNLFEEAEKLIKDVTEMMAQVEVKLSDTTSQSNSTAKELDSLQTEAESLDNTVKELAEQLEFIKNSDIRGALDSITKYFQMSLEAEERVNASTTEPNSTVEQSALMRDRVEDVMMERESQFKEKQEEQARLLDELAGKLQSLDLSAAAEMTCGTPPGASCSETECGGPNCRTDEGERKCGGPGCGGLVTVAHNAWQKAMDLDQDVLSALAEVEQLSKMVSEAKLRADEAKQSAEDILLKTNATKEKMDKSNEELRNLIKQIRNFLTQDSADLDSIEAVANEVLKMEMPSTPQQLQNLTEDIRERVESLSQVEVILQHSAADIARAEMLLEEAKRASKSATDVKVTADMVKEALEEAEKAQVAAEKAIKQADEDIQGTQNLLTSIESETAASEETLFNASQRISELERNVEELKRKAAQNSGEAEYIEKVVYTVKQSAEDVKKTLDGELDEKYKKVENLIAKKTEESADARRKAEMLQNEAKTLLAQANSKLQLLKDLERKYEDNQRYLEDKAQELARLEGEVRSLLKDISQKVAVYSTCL
UniProt P02545: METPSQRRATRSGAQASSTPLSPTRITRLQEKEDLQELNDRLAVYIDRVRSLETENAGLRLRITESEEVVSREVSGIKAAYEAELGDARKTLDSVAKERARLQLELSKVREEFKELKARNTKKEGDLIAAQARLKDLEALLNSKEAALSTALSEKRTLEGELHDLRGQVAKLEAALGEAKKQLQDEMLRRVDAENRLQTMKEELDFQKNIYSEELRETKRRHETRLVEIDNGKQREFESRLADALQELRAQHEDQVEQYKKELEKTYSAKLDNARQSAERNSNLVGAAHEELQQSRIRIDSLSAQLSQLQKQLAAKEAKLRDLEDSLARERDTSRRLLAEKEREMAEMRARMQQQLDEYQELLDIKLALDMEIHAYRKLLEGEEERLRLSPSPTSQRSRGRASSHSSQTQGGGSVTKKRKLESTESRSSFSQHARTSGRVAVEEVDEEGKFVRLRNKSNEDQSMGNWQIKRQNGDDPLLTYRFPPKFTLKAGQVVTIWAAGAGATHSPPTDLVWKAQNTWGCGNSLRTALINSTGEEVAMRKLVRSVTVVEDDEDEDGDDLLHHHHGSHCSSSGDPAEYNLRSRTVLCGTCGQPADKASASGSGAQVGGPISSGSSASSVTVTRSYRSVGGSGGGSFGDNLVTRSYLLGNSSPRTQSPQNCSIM
UniProt Q9UHA4, whole entry, looked up: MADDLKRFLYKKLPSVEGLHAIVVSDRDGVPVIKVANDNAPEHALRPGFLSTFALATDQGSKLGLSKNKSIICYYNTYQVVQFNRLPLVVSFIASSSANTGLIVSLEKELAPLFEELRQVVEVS
UniProt Q14657: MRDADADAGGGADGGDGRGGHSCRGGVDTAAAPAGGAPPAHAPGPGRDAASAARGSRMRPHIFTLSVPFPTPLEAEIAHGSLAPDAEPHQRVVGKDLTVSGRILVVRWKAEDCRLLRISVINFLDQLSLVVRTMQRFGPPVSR
UniProt Q96EK9: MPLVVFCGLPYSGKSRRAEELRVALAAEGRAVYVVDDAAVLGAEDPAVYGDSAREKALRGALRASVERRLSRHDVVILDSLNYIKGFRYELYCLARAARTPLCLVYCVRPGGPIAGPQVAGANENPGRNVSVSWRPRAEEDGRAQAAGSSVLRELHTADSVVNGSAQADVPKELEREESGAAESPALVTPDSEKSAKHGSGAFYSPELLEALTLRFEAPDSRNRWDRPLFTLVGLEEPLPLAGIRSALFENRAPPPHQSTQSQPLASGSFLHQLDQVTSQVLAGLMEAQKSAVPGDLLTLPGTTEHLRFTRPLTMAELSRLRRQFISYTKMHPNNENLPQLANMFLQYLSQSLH
UniProt Q16719: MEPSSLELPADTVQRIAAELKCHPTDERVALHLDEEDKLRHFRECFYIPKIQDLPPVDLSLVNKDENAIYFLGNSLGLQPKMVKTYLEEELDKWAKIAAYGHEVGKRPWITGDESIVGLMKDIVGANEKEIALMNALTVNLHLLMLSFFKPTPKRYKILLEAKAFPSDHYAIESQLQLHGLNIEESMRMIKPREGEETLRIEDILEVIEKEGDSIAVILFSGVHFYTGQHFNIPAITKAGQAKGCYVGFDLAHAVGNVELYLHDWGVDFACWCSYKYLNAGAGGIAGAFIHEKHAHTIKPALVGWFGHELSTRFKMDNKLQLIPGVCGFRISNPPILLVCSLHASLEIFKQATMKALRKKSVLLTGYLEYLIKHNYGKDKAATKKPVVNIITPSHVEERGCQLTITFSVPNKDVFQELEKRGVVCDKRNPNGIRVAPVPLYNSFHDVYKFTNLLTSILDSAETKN
UniProt O94898: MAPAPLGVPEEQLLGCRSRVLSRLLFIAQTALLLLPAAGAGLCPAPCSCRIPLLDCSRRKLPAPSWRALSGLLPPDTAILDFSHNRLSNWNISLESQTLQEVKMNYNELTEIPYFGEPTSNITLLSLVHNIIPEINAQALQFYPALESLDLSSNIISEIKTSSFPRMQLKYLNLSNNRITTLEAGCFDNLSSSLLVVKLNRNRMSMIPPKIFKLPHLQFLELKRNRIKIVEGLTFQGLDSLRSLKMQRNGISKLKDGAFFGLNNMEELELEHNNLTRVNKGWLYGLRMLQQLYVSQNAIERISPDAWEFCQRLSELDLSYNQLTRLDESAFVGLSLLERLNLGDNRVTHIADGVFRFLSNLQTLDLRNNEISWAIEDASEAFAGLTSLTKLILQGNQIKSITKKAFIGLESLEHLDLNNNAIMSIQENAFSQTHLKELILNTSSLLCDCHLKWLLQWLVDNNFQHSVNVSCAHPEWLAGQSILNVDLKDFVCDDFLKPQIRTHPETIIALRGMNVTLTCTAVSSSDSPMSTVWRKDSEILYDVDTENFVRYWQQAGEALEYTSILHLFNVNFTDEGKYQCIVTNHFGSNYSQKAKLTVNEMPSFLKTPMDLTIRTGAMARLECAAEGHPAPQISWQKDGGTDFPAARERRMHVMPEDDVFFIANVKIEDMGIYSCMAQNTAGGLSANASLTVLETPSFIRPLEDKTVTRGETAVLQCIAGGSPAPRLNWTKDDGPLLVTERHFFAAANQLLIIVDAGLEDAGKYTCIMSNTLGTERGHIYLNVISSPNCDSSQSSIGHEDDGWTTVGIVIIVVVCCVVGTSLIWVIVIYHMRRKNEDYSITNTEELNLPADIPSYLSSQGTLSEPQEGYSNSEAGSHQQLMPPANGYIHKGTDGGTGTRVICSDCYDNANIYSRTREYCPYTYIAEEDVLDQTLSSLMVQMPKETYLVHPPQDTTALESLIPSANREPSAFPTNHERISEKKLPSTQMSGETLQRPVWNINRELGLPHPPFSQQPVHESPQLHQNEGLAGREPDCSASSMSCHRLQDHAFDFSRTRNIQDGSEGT

Legend:
Assay in all cases: log2 fold change, soluble protein after heating vs DMSO (PISA); higher = thermal stabilisation; K562 cells, 10 uM, 30 min; active = over 0.2 and 3.5 SD of the protein, either way, in both replicates (recomputed)
[1] = compound: CC[C@@H]1C(=O)N(C)c2cnc(Nc3ccc(C(=O)NC4CCN(C)CC4)cc3OC)nc2N1C1CCCC1
Summary of the method: (§1)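 Values are thermal stability changes relative to control samples and are taken from duplicates. They are stated as log2 fold changes. Before quantification by TMTpro 16plex LC-MS/MS with equalised channel sums, K562 cells at 2×10^6 cells/mL were treated with 10 μM compound for 30 min, heated in aliquots for 3 min across 48°C-58°C, pooled, extracted in PBS with 0.5% NP-40 at 4°C, and centrifuged at 21,000xg for 90 min to give the soluble supernatant.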

volasertib = compound: CC[C@@H]1C(=O)N(C)c2cnc(Nc3ccc(C(=O)N[C@H]4CC[C@H](N5CCN(CC6CC6)CC5)CC4)cc3OC)nc2N1C(C)C [volasertib]
Summary of the method: as §1

[2] = compound: CC[C@H](C)N1C=C(C2=C(C=C(C=C21)C3=CN=C(C=C3)N4CCNCC4)C(=O)NCC5=C(C=C(NC5=O)C)C)C
Summary of the method: as §1

epoxomicin = compound: CC[C@H](C)[C@@H](C(=O)N[C@@H]([C@@H](C)O)C(=O)N[C@@H](CC(C)C)C(=O)[C@]1(CO1)C)NC(=O)[C@H]([C@@H](C)CC)N(C)C(=O)C [epoxomicin]
Summary of the method: as §1

[3] = compound: CCn1c(C(=O)N(C2CC2)C2CC2)cc2c3c(ncn3C)c(Nc3cc(C)n(C)n3)nc21
Summary of the method: as §1

[4] = compound: CCn1cc(-c2ccnc3[nH]c(-c4cccc(CN(C)C)c4)cc23)c(-c2ccc(NC(=O)N(C)C)cc2)n1
Summary of the method: as §1

[5] = compound: CN(C)CC(=O)Nc1ccc2[nH]c(=O)c3ccccc3c2c1
Summary of the method: as §1

rosiglitazone = compound: CN(CCOC1=CC=C(C=C1)C[C@H]2C(=O)NC(=O)S2)C3=CC=CC=N3 (racemic) [rosiglitazone]
Summary of the method: as §1

[6] = compound: CN1C2=C(C3=C1C(=O)N(N=C3)CC4=CC(=CC=C4)N)SC(=C2)S(=O)C
Summary of the method: as §1

[7] = compound: CN1CCC(CNc2ccc3ncc(-c4cccc(OC(F)(F)F)c4)n3n2)CC1
Summary of the method: as §1

saracatinib = compound: CN1CCN(CCOc2cc(OC3CCOCC3)c3c(Nc4c(Cl)ccc5c4OCO5)ncnc3c2)CC1 [saracatinib]
Summary of the method: as §1

sotrastaurin = compound: CN1CCN(c2nc(C3=C(c4c[nH]c5ccccc45)C(=O)NC3=O)c3ccccc3n2)CC1 [sotrastaurin]
Summary of the method: as §1

alvocidib = compound: CN1CC[C@H](c2c(O)cc(O)c3c(=O)cc(-c4ccccc4Cl)oc23)[C@H](O)C1 [alvocidib]
Summary of the method: as §1

Tubastatin A = compound: CN1CCc2c(c3ccccc3n2Cc2ccc(C(=O)NO)cc2)C1 [Tubastatin A]
Summary of the method: as §1

[8] = compound: CNC(=O)C1=CC=CC=C1NC2=NC(=NC=C2Cl)NC3=C(C=C(C=C3)N4CCOCC4)OC
Summary of the method: as §1

defactinib = compound: CNC(=O)c1ccc(Nc2ncc(C(F)(F)F)c(NCc3nccnc3N(C)S(C)(=O)=O)n2)cc1 [defactinib]
Summary of the method: as §1

rucaparib = compound: CNCc1ccc(-c2[nH]c3cc(F)cc4c3c2CCNC4=O)cc1 [rucaparib]
Summary of the method: as §1

[9] = compound: CNc1nc(-c2ccc3c(N)n[nH]c3c2)cc(N2C[C@@H](C(=O)NC3CCCCC3)CC[C@H]2C)n1
Summary of the method: as §1

encorafenib = compound: COC(=O)N[C@@H](C)CNc1nccc(-c2cn(C(C)C)nc2-c2cc(Cl)cc(NS(C)(=O)=O)c2F)n1 [encorafenib]
Summary of the method: as §1

[10] = compound: COC(=O)[C@H](CCSC)NC(=O)C1=C(C=C(C=C1)NC[C@H](CS)N)C2=CC=CC=C2
Summary of the method: as §1

Target	log2 fold change [1]	log2 fold change (volasertib)	log2 fold change [2]	log2 fold change (epoxomicin)	log2 fold change [3]	log2 fold change [4]	log2 fold change [5]	log2 fold change (rosiglitazone)	log2 fold change [6]	log2 fold change [7]	log2 fold change (saracatinib)	log2 fold change (sotrastaurin)	log2 fold change (alvocidib)	log2 fold change (Tubastatin A)	log2 fold change [8]	log2 fold change (defactinib)	log2 fold change (rucaparib)	log2 fold change [9]	log2 fold change (encorafenib)	log2 fold change [10]
LRRC59 (UniProt Q96AG4)	inactive: 0.016	inactive: 0.07	inactive: -0.018	inactive: -0.013	inactive: 0.01	inactive: 0.011	inactive: 0.007	inactive: 0.028	inactive: -0.08	inactive: 0.055	inactive: -0.054	inactive: 0.042	inactive: 0.007	inactive: -0.015	inactive: 0	inactive: 0.001	inactive: -0.01	inactive: -0.005	inactive: -0.029	inactive: -0.001
LCMT2 (UniProt O60294)	inactive: 0.149	inactive: -0.228	inactive: 0.014	inactive: -0.131	inactive: -0.115	inactive: 0	inactive: -0.069	inactive: -0.006	inactive: 0.03	inactive: -0.069	inactive: 0.127	inactive: 0.04	inactive: -0.033	–	inactive: 0.024	inactive: -0.067	inactive: 0.075	inactive: 0.233	inactive: -0.153	inactive: -0.376
LRRC4B (UniProt Q9NT99)	inactive: 0.105	inactive: 0.115	inactive: 0.147	inactive: -0.027	inactive: -0.154	inactive: -0.005	inactive: 0.017	inactive: -0.152	inactive: 0	inactive: 0.231	inactive: 0.06	inactive: 0.02	inactive: -0.038	inactive: -0.172	inactive: -0.238	inactive: 0.063	inactive: 0.069	inactive: -0.028	inactive: 0.007	inactive: -0.028
LIN7A (UniProt O14910)	inactive: 0.12	inactive: 0.028	inactive: 0.056	inactive: 0.072	inactive: 0.028	–	inactive: 0.033	inactive: 0.026	inactive: -0.052	–	inactive: 0.013	inactive: 0.092	inactive: 0.048	inactive: -0.013	inactive: -0.056	inactive: -0.021	inactive: 0.093	inactive: -0.077	inactive: -0.088	inactive: 0.008
LEPR (UniProt P48357)	inactive: 0.047	inactive: -0.001	inactive: 0.006	inactive: 0.01	inactive: 0.042	inactive: -0.022	inactive: -0.017	inactive: 0.023	inactive: -0.078	inactive: 0.104	inactive: 0.074	inactive: 0.031	inactive: 0.009	inactive: 0.042	inactive: 0.027	inactive: -0.042	inactive: -0.012	inactive: -0.002	inactive: -0.01	inactive: 0.053
LAMB1 (UniProt P07942)	inactive: -0.012	inactive: 0.004	inactive: -0.043	inactive: 0.005	inactive: -0.016	inactive: -0.057	inactive: -0.029	inactive: 0.092	inactive: -0.063	inactive: 0.057	inactive: 0.05	inactive: -0.009	inactive: -0.042	inactive: 0.057	inactive: 0.033	inactive: 0.005	inactive: -0.006	inactive: 0.11	inactive: 0.013	inactive: -0.017
LMNA (UniProt P02545)	inactive: 0.008	inactive: -0.15	inactive: 0.01	inactive: -0.014	–	inactive: 0.057	inactive: 0.009	–	inactive: -0.006	inactive: 0	inactive: 0.041	inactive: -0.083	active: -0.214	inactive: -0.033	inactive: 0.003	inactive: -0.121	inactive: -0.08	inactive: -0.138	inactive: -0.019	inactive: 0.042
LAMTOR3 (UniProt Q9UHA4)	inactive: -0.006	inactive: 0.03	inactive: -0.041	inactive: -0.002	inactive: 0.047	inactive: -0.118	inactive: -0.02	inactive: -0.045	inactive: 0.059	inactive: -0.036	inactive: -0.1	inactive: -0.079	inactive: 0.009	inactive: 0.027	inactive: -0.127	inactive: -0.003	inactive: 0.061	inactive: -0.035	inactive: -0.01	inactive: -0.026
LAGE3 (UniProt Q14657)	inactive: 0.055	inactive: 0.013	inactive: -0.052	inactive: 0.096	inactive: 0.074	inactive: -0.015	inactive: 0.092	inactive: 0.026	inactive: -0.085	inactive: -0.007	inactive: 0.053	inactive: -0.015	inactive: 0.011	inactive: -0.005	inactive: -0.024	inactive: -0.035	inactive: -0.049	inactive: -0.003	inactive: -0.045	inactive: 0.039
LAMTOR4 (UniProt Q0VGL1)	inactive: 0.001	inactive: -0.023	inactive: -0.046	inactive: 0.011	inactive: 0.102	inactive: -0.011	inactive: -0.053	inactive: 0.014	inactive: 0.043	inactive: -0.083	inactive: -0.084	inactive: -0.082	inactive: 0.14	inactive: 0.032	inactive: -0.076	inactive: 0.007	inactive: -0.041	inactive: -0.051	inactive: -0.034	inactive: 0.022
LAMP1 (UniProt P11279)	inactive: -0.006	inactive: -0.009	inactive: -0.057	inactive: -0.029	inactive: 0.01	inactive: -0.015	inactive: -0.003	inactive: -0.009	inactive: -0.042	inactive: 0.089	inactive: -0.007	inactive: 0.062	inactive: -0.012	inactive: -0.058	inactive: 0.035	inactive: -0.019	inactive: -0.1	inactive: 0.027	inactive: 0.031	inactive: -0.049
KTI12 (UniProt Q96EK9)	inactive: -0.075	inactive: 0.044	inactive: -0.015	inactive: -0.029	inactive: -0.083	inactive: -0.082	inactive: 0.115	inactive: 0.064	inactive: 0.093	inactive: -0.008	inactive: 0.018	inactive: -0.023	inactive: 0.07	inactive: 0.027	inactive: 0.008	inactive: -0.017	inactive: 0.086	inactive: 0.039	inactive: 0.038	inactive: -0.03
L1RE1 (UniProt Q9UN81)	inactive: 0.147	inactive: 0.059	inactive: -0.013	inactive: 0.033	inactive: -0.051	–	inactive: 0.008	inactive: -0.174	inactive: 0.263	–	inactive: 0.118	inactive: 0.012	inactive: 0.122	inactive: 0.042	inactive: 0.004	inactive: -0.008	inactive: 0.073	inactive: 0.034	inactive: 0.105	inactive: -0.052
KYNU (UniProt Q16719)	inactive: 0.093	inactive: 0.014	inactive: -0.02	inactive: 0.008	inactive: 0.05	inactive: 0.031	inactive: -0.045	inactive: -0.026	inactive: -0.038	inactive: -0.058	inactive: 0.066	inactive: 0.01	inactive: -0.006	inactive: 0.024	inactive: -0.009	inactive: -0.022	inactive: 0.054	inactive: -0.051	inactive: -0.022	inactive: 0.035
LRIG2 (UniProt O94898)	inactive: 0.04	inactive: -0.094	inactive: -0.222	inactive: 0.095	inactive: 0.071	inactive: 0.002	inactive: -0.058	inactive: 0.054	inactive: 0.105	inactive: 0.035	inactive: -0.02	inactive: 0.027	inactive: -0.027	inactive: 0.093	inactive: 0.121	inactive: -0.008	inactive: -0.021	inactive: -0.017	inactive: 0.051	inactive: -0.043

In a second layout: results already given.
Target | log2 fold change [1] | log2 fold change (volasertib) | log2 fold change [2] | log2 fold change (epoxomicin) | log2 fold change [3] | log2 fold change [4] | log2 fold change [5] | log2 fold change (rosiglitazone) | log2 fold change [6] | log2 fold change [7] | log2 fold change (saracatinib) | log2 fold change (sotrastaurin) | log2 fold change (alvocidib) | log2 fold change (Tubastatin A) | log2 fold change [8] | log2 fold change (defactinib) | log2 fold change (rucaparib) | log2 fold change [9] | log2 fold change (encorafenib) | log2 fold change [10]
KYNU (UniProt Q16719) | inactive: 0.093 | inactive: 0.014 | inactive: -0.02 | inactive: 0.008 | inactive: 0.05 | inactive: 0.031 | inactive: -0.045 | inactive: -0.026 | inactive: -0.038 | inactive: -0.058 | inactive: 0.066 | inactive: 0.01 | inactive: -0.006 | inactive: 0.024 | inactive: -0.009 | inactive: -0.022 | inactive: 0.054 | inactive: -0.051 | inactive: -0.022 | inactive: 0.035
LRIG2 (UniProt O94898) | inactive: 0.04 | inactive: -0.094 | inactive: -0.222 | inactive: 0.095 | inactive: 0.071 | inactive: 0.002 | inactive: -0.058 | inactive: 0.054 | inactive: 0.105 | inactive: 0.035 | inactive: -0.02 | inactive: 0.027 | inactive: -0.027 | inactive: 0.093 | inactive: 0.121 | inactive: -0.008 | inactive: -0.021 | inactive: -0.017 | inactive: 0.051 | inactive: -0.043
